Library screen at single concentrations

Data taken from ChEMBL document CHEMBL3988442, “University of Dundee, Small-Polar-MMV Screening Library” (2021).

Mtb cholesterol medium: 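Phenotypic screen: M. tuberculosis growth, cholesterol and DPPC medium, 4 days; the read-out is not stated. Tested at 50 µM. The record gives no direction; compounds that gave an IC50 in retests scored well above the rest, so higher reads as more growth inhibition. Of about 69,000 compounds tested this way, about 370 (0.54%) reached 50% or more in at least one test.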
Mtb glucose medium: 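Whole-cell growth test on Mycobacterium tuberculosis, read after 3 days in glucose-containing 7H9 medium; the read-out is not stated. Tested at 50 µM. Direction is inferred from retests: higher values go with more growth inhibition. About 69,000 compounds were tested under these conditions; 1.1% (about 760) showed 50% or more at least once.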

Values are the deposited “Percent Effect”, in %. The record does not define 0% and 100%; most values in the screen are far below 50% and negative numbers occur (in some assays of this library far below -100). The compounds are a random part of those screened. Two or more numbers in one place are separate tests of the same structure; such repeats can differ widely.

* CN(Cc1cccnc1)Cc1cncc2c1CCN(Cc1ccoc1)C2.Cl.Cl.Cl : Mtb cholesterol medium: 6.555%; Mtb glucose medium: -25.8%
* [H][C@@]12COC[C@@H](CC(=O)Nc3cnccn3)[C@]1([H])CN(C1CCOCC1)C2 : Mtb cholesterol medium: -12.82%; Mtb glucose medium: 9.089%
* CC(=O)N1CCC(c2ncc(C(=O)Nc3ccc(F)cc3)c(C)n2)CC1 : Mtb cholesterol medium: -20.82% & -17.31%; Mtb glucose medium: -10.32%
* Cc1c(Cl)cccc1NCc1nc2n(n1)CCCCC2 : Mtb cholesterol medium: -17.21%; Mtb glucose medium: -16.96%
* N#Cc1ccc(OC2CCN(C(=O)Cc3cccs3)CC2)nc1 : Mtb cholesterol medium: 7.87%; Mtb glucose medium: 26.93%
* CC1CN(CC(=O)N2CCCC2)CCN1c1ccc2nncn2n1 (stereo not given) : Mtb cholesterol medium: 2.024%; Mtb glucose medium: -4.382%
* CC(Nc1nc(-c2ccncc2)nc2c1CCNC2)c1ccccc1 (stereo not given) : Mtb cholesterol medium: -7.884%; Mtb glucose medium: 41.66%
* O=C(C1CC=CC1)N1CCc2ncnc(-c3ccncc3)c2CC1 : Mtb cholesterol medium: -7.019%; Mtb glucose medium: 8.711% & -4.871%
* CCNc1ncc(C(=O)NCc2csc(C)n2)cn1 : Mtb cholesterol medium: 6.356%; Mtb glucose medium: 12.73% & 14.39%
* Clc1ccccc1C1(c2ccnc(CC3CC3)n2)CCNCC1 : Mtb cholesterol medium: -2.159%; Mtb glucose medium: 12.08%
* Cn1ccnc1Sc1ccc(S(N)(=O)=O)cn1 : Mtb cholesterol medium: 2.181%; Mtb glucose medium: 1.535% & 15.29%
* COCC(=O)Nc1ccc(-c2noc([C@@H]3CCCN3CC(C)C)n2)cn1 : Mtb cholesterol medium: 0.7157%; Mtb glucose medium: 7.281% & -7.438%
* Cc1nnc(NC(=O)NCCCN2CCC(C(N)=O)CC2)s1 : Mtb cholesterol medium: -5.031%; Mtb glucose medium: 11.72%
* CCOC(=O)C(C)NC(=O)CCc1ccc(F)cc1 (stereo not given) : Mtb cholesterol medium: -7.027%; Mtb glucose medium: -2.806% & -3.078%
* Cn1ccnc1CN1CCN(CC(=O)NCc2ccccc2F)CC1 : Mtb cholesterol medium: -1.56%; Mtb glucose medium: 0.9868% & 1.657%
* CN(Cc1ccsc1)C(=O)c1ccc(F)c(NS(C)(=O)=O)c1 : Mtb cholesterol medium: -1.9%; Mtb glucose medium: -1.298%
* CN(CC(=O)N1CCOC(CCc2ccccc2)C1)Cc1ccccn1 (stereo not given) : Mtb cholesterol medium: 9.579%; Mtb glucose medium: 26.96%
* CN(Cc1ccco1)C(=O)NCc1nnc2n1CCC2 : Mtb cholesterol medium: 16.01%; Mtb glucose medium: 28.12% & -6.643%
* Cc1ccncc1NS(=O)(=O)c1ccc(Cl)s1 : Mtb cholesterol medium: 5.851%; Mtb glucose medium: 8.804% & -0.9663%
* Cc1cc(C)n(CC2CCCCN2C(=O)c2ccc3c(c2)OCO3)n1 (stereo not given) : Mtb cholesterol medium: -13.94%; Mtb glucose medium: -18.64%
* Cc1ccsc1C(=O)N1CCN(Cc2cscn2)CC1 : Mtb cholesterol medium: 4.274%; Mtb glucose medium: 1.886%
* CCc1nnc2n1CCN(c1nc(C)cc(N(C)C)n1)C2 : Mtb cholesterol medium: 10.94%; Mtb glucose medium: -4.054% & 3.348%
* N#Cc1c(F)cccc1NCCCOCC1CCOC1 (stereo not given) : Mtb cholesterol medium: 28.19%; Mtb glucose medium: 16.27%
* Cc1cnn(CC2CCCN2c2ncnc3sccc23)c1 (stereo not given) : Mtb cholesterol medium: 11.33%; Mtb glucose medium: 13.75%
* CC(C)(O)CCc1cccc(C(=O)NCC2COCCO2)c1 (stereo not given) : Mtb cholesterol medium: -10.72%; Mtb glucose medium: 14.64%
* c1nc(N2CCN(Cc3nnnn3C3CC3)CC2)c2sccc2n1 : Mtb cholesterol medium: 15.53%; Mtb glucose medium: -9.953% & 7.144%
* CCOc1ccnc(N2CCN(C(=O)c3cn[nH]c3C)CC2)n1 : Mtb cholesterol medium: -1.753%; Mtb glucose medium: -18.43%
* CCNC(=O)c1ccc2c(c1)nc1n2CCN(Cc2ccco2)C1 : Mtb cholesterol medium: 3.403%; Mtb glucose medium: 2.555% & -7.773%
* CC1CCC(NC(=O)CNC2(c3cccc(Br)c3)CCOCC2)CC1 (stereo not given) : Mtb cholesterol medium: -8.925%; Mtb glucose medium: -16.43%
* CSc1ccc(C(C(=O)O)N2CCOCC2)cc1 (stereo not given) : Mtb cholesterol medium: 14.65%; Mtb glucose medium: -21.44%

Some entries from above, unchanged:

structure,Mtb cholesterol medium,Mtb glucose medium
COCC(=O)Nc1ccc(-c2noc([C@@H]3CCCN3CC(C)C)n2)cn1,0.7157%,7.281% & -7.438%
N#Cc1ccc(OC2CCN(C(=O)Cc3cccs3)CC2)nc1,7.87%,26.93%